Data from patent US20130072665A1.
No constants are given. Whether binding was seen depends on the method and setting. Some entries that bind do so weakly or less than the wild type.

The chains behind the UniProt entries cited, without tags or fusion partners. Where a name states a change or a piece, a line headed by the entry shows the natural chain unless it says otherwise.
UniProt Q8NBP7: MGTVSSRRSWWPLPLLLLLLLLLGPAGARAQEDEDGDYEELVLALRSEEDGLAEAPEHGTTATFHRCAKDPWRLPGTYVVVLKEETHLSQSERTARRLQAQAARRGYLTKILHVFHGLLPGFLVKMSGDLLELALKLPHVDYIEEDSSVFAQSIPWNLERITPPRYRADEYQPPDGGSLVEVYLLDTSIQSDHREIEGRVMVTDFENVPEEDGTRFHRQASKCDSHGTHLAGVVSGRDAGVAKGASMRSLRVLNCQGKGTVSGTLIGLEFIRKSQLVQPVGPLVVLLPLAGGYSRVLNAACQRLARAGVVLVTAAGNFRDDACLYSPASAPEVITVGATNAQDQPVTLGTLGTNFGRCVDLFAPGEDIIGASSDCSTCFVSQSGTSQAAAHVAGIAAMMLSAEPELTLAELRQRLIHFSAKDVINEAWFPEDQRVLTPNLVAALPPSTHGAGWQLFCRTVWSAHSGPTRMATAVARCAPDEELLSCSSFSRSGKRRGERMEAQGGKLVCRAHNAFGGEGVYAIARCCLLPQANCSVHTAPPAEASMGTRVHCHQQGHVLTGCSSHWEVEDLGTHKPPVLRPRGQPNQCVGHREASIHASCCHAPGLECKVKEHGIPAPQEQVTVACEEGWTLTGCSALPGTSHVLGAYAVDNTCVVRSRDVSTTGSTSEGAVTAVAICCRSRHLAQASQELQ

Target: PCSK9 ProCat (31-449 of SEQ ID NO: 3) (human) (UniProt Q8NBP7)
Assay: domain binding ELISA (coated antibody captures the PCSK9 form; OD650)

Row | binding | Binder
1 | binds | 17C2.1 (antibody, V domains shown) VH: QVQLVQSGAEVKKPGASVKVSCKASGYSFTSYGISWVRQAPGQGLEWMGWVSAYNGNTNYAQKFQGRVTMTTDTSTSTAYMELRSLRSDDTAVYYCARGYVMDVWGQGTTVTVSS VL: QSALTQPASVFGSPGQSITISCTGTSSDVGAYNSVSWYQQHPGKAPKRMIYEVSNRPSGVSNRFSGSKSGNTASLTISGLQAEDEADYYCSSYTSTNMVFGGGTKLTVL
2 | binds | 26E10.1 (antibody, V domains shown) VH: QVQLVQSGAEVKKPGASVKVSCKASGYTLTSYGISWVRQAPGQGLEWMGWVSFYNGNTNYAQKLQGRGTMTTDPSTSTAYMELRSLRSDDTAVYYCARGYGMDVWGQGTTVTVSS VL: QSALTQPASVSGSPGQSITISCTGTSSDVGGYNSVSWYQQHPGKAPKLMIYEVSNRPSGVFNRFSGSKSGNTASLTISGLQAEDEADYYCNSYTSTSMVFGGGTKLTVL
